The results in this text go back to publication PMC7819943, “Rice protein-binding microarrays: a tool to detect cis-acting elements near promoter regions in rice”.

By UniProt entry, the sequences of proteins in these tests, tags left out.
UniProt Q0JBA9, entry or part of it: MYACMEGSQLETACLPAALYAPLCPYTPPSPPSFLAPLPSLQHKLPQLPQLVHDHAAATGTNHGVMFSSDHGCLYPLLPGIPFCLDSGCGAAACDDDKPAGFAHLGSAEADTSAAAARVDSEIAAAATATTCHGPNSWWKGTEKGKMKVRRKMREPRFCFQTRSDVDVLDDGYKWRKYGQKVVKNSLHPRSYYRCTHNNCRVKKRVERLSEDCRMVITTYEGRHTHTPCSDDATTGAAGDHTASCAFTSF

This is one part of the list.

The assay addresses OsWRKY34 (Oryza sativa, UniProt Q0JBA9 1-250). Briefly: protein-binding microarray (RPBM); PBS, 2% BSA, 51.3 ng/ul salmon testes DNA, 50 uM zinc acetate, 200 nM TF, 25 C, 1 h; high values mean tight binding. Conditions: protein: recombinant; tags: N-terminal polyhistidine and DsRed monomer fusion (pET32a); label: CyDye5-dUTP incorporated in the synthesized complementary strand; 3' TTTTT single-stranded linker to array surface; dsDNA, one strand shown. A digest of the protocol:
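Per-feature fluorescence intensity (arbitrary units), read on an Axon 4000B scanner, is the binding signal. Transcription factors carrying an N-terminal polyhistidine tag and DsRed fusion were expressed in E. coli BL21-CodonPlus and purified on Ni–NTA. A custom Agilent array, made double-stranded by primer extension with Cy5-dUTP and blocked with 2% BSA, was incubated with 200 nM protein in PBS, 2% BSA, salmon testes DNA and 50 µM zinc acetate at 25 °C for 1 h and then washed.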
As for “GATTCCAAATTTCACAACAAGCATATAACTTTCACGAGACCGGAGTCACCTAGTGCAG”, the binding signal is 8290 fluorescence intensity (a.u.).
As to “TTTATACATATTCAGTGGTACTCTCTCTATGCCATAATATCGGAGTCACCTAGTGCAG”, the binding signal is 8460 fluorescence intensity (a.u.).
For “TCCTTGTTTCTTTGTGGAAGCCTCTTCTGCTGCTGCCGTCCGGAGTCACCTAGTGCAG” the value was 9850 fluorescence intensity (a.u.); for “TTTTTGCAGCATCAATTGAAAGTTCATTAGTCCTCTTTGTCGGAGTCACCTAGTGCAG”, 8120 fluorescence intensity (a.u.).
Then “CCATGTGTAACACTATCATCATCAACCATGCAATCCATCTCGGAGTCACCTAGTGCAG”, with 8780 fluorescence intensity (a.u.).
For “GTATATTCAGGCCTGGTTTAGTCGCCCAAAATTTTTTTCCCGGAGTCACCTAGTGCAG” the value was 11600 fluorescence intensity (a.u.); for “CCGCCGAGTCACTGCTCTCGTTCTTATCCACACTGCCCGACGGAGTCACCTAGTGCAG”, 9120 fluorescence intensity (a.u.); for “CCCGGACTTTCTTCCCCTTGGGTCCAGTTGCACCTCTTCGCGGAGTCACCTAGTGCAG”, 8780 fluorescence intensity (a.u.).
As to “CCTCGCCATCACCGCCATTGCCGCCGCCGCCGCCGCCGCCCGGAGTCACCTAGTGCAG”, the binding signal is 14100 fluorescence intensity (a.u.).
For “CCGGTCCGGTCACCGCCTGCCTCGTCGTCGCCGGCGCTGACGGAGTCACCTAGTGCAG”, the binding signal is 9200 fluorescence intensity (a.u.).
For “CTCATCTCACCCCTTTCTTTGCCTTGTTGCTTTGGTTGGACGGAGTCACCTAGTGCAG” the value was 9030 fluorescence intensity (a.u.); for “TTTAATTCCGAATTTCTATTTTTTTTTCTTAATTGTATTTCGGAGTCACCTAGTGCAG”, 8050 fluorescence intensity (a.u.); for “CGAATTGAGGCCCAAATACTTGGGTGGGGTGGAGGGCCGACGGAGTCACCTAGTGCAG”, 12300 fluorescence intensity (a.u.).
For “AACCTTCCATTTTGTGCTATCTTTTGTTCTTTTGTGTGCTCGGAGTCACCTAGTGCAG” the value was 8610 fluorescence intensity (a.u.); for “CTATTTAACCCCAACAACGCTCGTACCATCACGGCATCATCGGAGTCACCTAGTGCAG”, 10300 fluorescence intensity (a.u.).
“CGCACGCCGCACGCTGGCCACCCACCTCCACCTCCGCCGGCGGAGTCACCTAGTGCAG”: the binding signal is 10800 fluorescence intensity (a.u.).
With “AAGTCCAAATAAACCATCACTCTTTTTGTTTGACTTTTTTCGGAGTCACCTAGTGCAG”, the binding signal is 11400 fluorescence intensity (a.u.).
For “TTTTTTCAATATTGCTTATTTTTAATTTCGAATTCCTACTCGGAGTCACCTAGTGCAG” the value was 10600 fluorescence intensity (a.u.); for “TATAATTCATTTGGTTAATGTATCATTAACTTGTGTCAATCGGAGTCACCTAGTGCAG”, 8080 fluorescence intensity (a.u.); for “CTCTCTCTCTCTCTCTCTCATACCTAAAAGTTATTTTAATCGGAGTCACCTAGTGCAG”, 8250 fluorescence intensity (a.u.).
Then “CTACGGCACCTACTAACTCCTTGTCTGCTTCCGCGCGCCACGGAGTCACCTAGTGCAG”, with 10500 fluorescence intensity (a.u.).
For “AACTTACATTGTAAATACACTAAAATTACATATGTAATTTCGGAGTCACCTAGTGCAG” the value was 9910 fluorescence intensity (a.u.); for “AAGAGGAGAGATCATTGTTGACGGGTTATACCCGACCGCGCGGAGTCACCTAGTGCAG”, 9020 fluorescence intensity (a.u.).
For the sequence “CGATGTGTGCTTTAACTTTCGGATCGATGCTTATTTATCACGGAGTCACCTAGTGCAG”, the binding signal was 8380 fluorescence intensity (a.u.).
On to “CCCAGCCTTCCCCTCACTGACAGCCCGGGCCCACCGCTCACGGAGTCACCTAGTGCAG”, for which the binding signal was 8290 fluorescence intensity (a.u.).
Then “CGTTTCATATTATAAGACTTTCTAGCATTGCCCATATTTACGGAGTCACCTAGTGCAG”, with 9360 fluorescence intensity (a.u.); and “AAGAGAGAGAGAGATGGAGTGGCTGCTTTTGTTTCCTCCTCGGAGTCACCTAGTGCAG”, with 9090 fluorescence intensity (a.u.); and “GGTACTTGTGGTCTTGAAGGTTGTGCTTTCCATCCAATTGCGGAGTCACCTAGTGCAG”, with 12900 fluorescence intensity (a.u.).
For “TCCATAGTCTTTGCGCTTTTTGCTTAGAGCAAGTTTAATACGGAGTCACCTAGTGCAG” the value was 8390 fluorescence intensity (a.u.); for “GGCACGTACACAGTCAGATCCACCTTGGCAAGCTATAATCCGGAGTCACCTAGTGCAG”, 8530 fluorescence intensity (a.u.); for “TGCAGGTTGCTCGGTTGTTTTGTGTAGTGTAGATGTGTGACGGAGTCACCTAGTGCAG”, 10300 fluorescence intensity (a.u.).
For “ATCTGTATCTTTGTTTATTTTTTTTATTTTTCTCCCATTTCGGAGTCACCTAGTGCAG”, the binding signal was 10600 fluorescence intensity (a.u.).
Then “TGACGAGAGCGCACAACACATCCCACATACTGGCGCACACCGGAGTCACCTAGTGCAG”, with 8910 fluorescence intensity (a.u.); and “TTCTTATTTGCAAGTATACTGTTTTGCTTTTCTCTCTAATCGGAGTCACCTAGTGCAG”, with 9690 fluorescence intensity (a.u.).
With “AGAGTTGTTTGATGTTATTTTGTCCTATCTCTAACAGATTCGGAGTCACCTAGTGCAG”, the binding signal was 10900 fluorescence intensity (a.u.).
As for “TTGTCAATCTGTTTCTATTCTGCTGTCTATGCTCTGCATTCGGAGTCACCTAGTGCAG”, the binding signal is 9040 fluorescence intensity (a.u.).
As for “GCTGCCTCCGCCTCGCGCCGTCGCCATCGTCGTCCCCGCCCGGAGTCACCTAGTGCAG”, the binding signal is 9500 fluorescence intensity (a.u.).
Turning to “TCTTCGTCAATTTATTCTTCTGAGTTGCTAACATGTAACCCGGAGTCACCTAGTGCAG”, the binding signal is 10800 fluorescence intensity (a.u.).
Take “CACCGTTGGTTCCTTTCACACCCGTCTACAAGTGTTCAGTCGGAGTCACCTAGTGCAG”: the binding signal is 8660 fluorescence intensity (a.u.).
For “ACAACCCTTTCATTACCAGTCATCTCCTCCCACACTCAGCCGGAGTCACCTAGTGCAG”, the binding signal was 11100 fluorescence intensity (a.u.).
For the sequence “ACTCATCAAGATCTATAACTTTTATTTGGGTCATTTCTTCCGGAGTCACCTAGTGCAG”, the binding signal is 11900 fluorescence intensity (a.u.).
For “TGTTTGAGCATTGGTATCGTATGGATAGCTCATTAGTTTTCGGAGTCACCTAGTGCAG” the value was 8100 fluorescence intensity (a.u.).
